Measurements taken from article PMC7819943, “Rice protein-binding microarrays: a tool to detect cis-acting elements near promoter regions in rice”.
Some of the results follow.

Molecular target: T1, OsSMF1 (Oryza sativa, UniProt Q6ZLB0 1-436)
T1 sequence: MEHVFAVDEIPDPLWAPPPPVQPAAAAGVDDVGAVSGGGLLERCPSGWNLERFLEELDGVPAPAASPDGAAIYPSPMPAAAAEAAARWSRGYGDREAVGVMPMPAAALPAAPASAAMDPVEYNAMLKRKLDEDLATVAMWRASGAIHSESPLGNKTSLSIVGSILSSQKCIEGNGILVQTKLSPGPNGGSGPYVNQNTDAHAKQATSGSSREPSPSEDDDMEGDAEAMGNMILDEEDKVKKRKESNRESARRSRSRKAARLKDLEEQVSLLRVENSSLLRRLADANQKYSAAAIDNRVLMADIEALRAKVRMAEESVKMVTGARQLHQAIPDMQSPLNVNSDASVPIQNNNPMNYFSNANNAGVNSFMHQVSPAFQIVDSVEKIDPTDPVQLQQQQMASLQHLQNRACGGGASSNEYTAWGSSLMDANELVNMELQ
Experiment: protein-binding microarray (RPBM); PBS, 2% BSA, 51.3 ng/ul salmon testes DNA, 50 uM zinc acetate, 200 nM TF, 25 C, 1 h; high values mean tight binding
Settings: protein: recombinant; tags: N-terminal polyhistidine and DsRed monomer fusion (pET32a); chain copies: 2; label: CyDye5-dUTP incorporated in the synthesized complementary strand; 3' TTTTT single-stranded linker to array surface; dsDNA, one strand shown
In short: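 An Axon 4000B scanner gave the binding signal as per-feature fluorescence intensity in arbitrary units. This followed washing of a custom Agilent array that had been incubated for 1 h at 25 °C with 200 nM protein in PBS, 2% BSA, salmon testes DNA and 50 µM zinc acetate. The proteins were transcription factors fused at the N-terminus to polyhistidine and DsRed, expressed in E. coli BL21-CodonPlus and purified on Ni–NTA.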

Sequence | binding signal
TAGTACCTTTACTTTTCAGTTTTCACCCCATGTGGCATACCGGAGTCACCTAGTGCAG | 3620 fluorescence intensity (a.u.)
GGACGGCAACAACATTGTCTCGTTGATAGCTACCTGGATCCGGAGTCACCTAGTGCAG | 3420 fluorescence intensity (a.u.)
CATGGACAGATATATATAATCACCCATGCATATCAACAGTCGGAGTCACCTAGTGCAG | 3300 fluorescence intensity (a.u.)
CTTCCACACCGCAATCTCGCAACACATCAGCACACACCGCCGGAGTCACCTAGTGCAG | 4730 fluorescence intensity (a.u.)
TTCTCCTTCTCCCCAATCGTCAACAGCACCGTCATTCCTCCGGAGTCACCTAGTGCAG | 4810 fluorescence intensity (a.u.)
TATCTCTTGAGGCCCATCACAAAATTTGGGCCCACATCACCGGAGTCACCTAGTGCAG | 3490 fluorescence intensity (a.u.)
CAGTACAAGTTGCTATACGTGTCCAGATTTACAAGAATAGCGGAGTCACCTAGTGCAG | 3540 fluorescence intensity (a.u.)
TGACTAGGTCGTTGCACGCGTCAGCCGGTAGTCCGGACAGCGGAGTCACCTAGTGCAG | 6110 fluorescence intensity (a.u.)
ACCCTTCGTCACCCCTAACCCTAGGCTGAGTCATTCTCTTCGGAGTCACCTAGTGCAG | 10900 fluorescence intensity (a.u.)
GTTCGCCGCACGCGCGTGCGCGTGAGCCATCCCCGAGCCGCGGAGTCACCTAGTGCAG | 3640 fluorescence intensity (a.u.)
GCATTTAGTCACAGCAAATCAGTACTAGTAGTAGTAAGCACGGAGTCACCTAGTGCAG | 4300 fluorescence intensity (a.u.)
CTGGAGTTTGACTTATATGCTCCAAATAGAGGGGATGCGACGGAGTCACCTAGTGCAG | 4250 fluorescence intensity (a.u.)
AATGGGCCGAAAGCGTGTGATGACGTCATCAGATTTCGGCCGGAGTCACCTAGTGCAG | 31400 fluorescence intensity (a.u.)
CCTTAGTCCTAGCTGTCGCCCTCCGTCTCATTCAGTCCTCCGGAGTCACCTAGTGCAG | 4380 fluorescence intensity (a.u.)
TTGTACGTCTCCGGGCAAGGGCCGCCGATGTAGCGGTCGTCGGAGTCACCTAGTGCAG | 3190 fluorescence intensity (a.u.)
TTTATCTTTCAAATATGGTGACTACATGTATAGATTAGTCCGGAGTCACCTAGTGCAG | 3540 fluorescence intensity (a.u.)
TTCCTATTTTGCCCTGTTTAGATTATTGAAGACTCATAAACGGAGTCACCTAGTGCAG | 3780 fluorescence intensity (a.u.)
AACCAGTCGCCGCTCGCCACGTGGCACCCTCCACCTCCCTCGGAGTCACCTAGTGCAG | 50500 fluorescence intensity (a.u.)
TCCCCGCCGCTTTGTGGGCCCTGCGTCAGATGCATGCAGTCGGAGTCACCTAGTGCAG | 5310 fluorescence intensity (a.u.)
ATTGCACAGATTGTGACTAATTTGCGAGACGAATCTTTTACGGAGTCACCTAGTGCAG | 3520 fluorescence intensity (a.u.)
GATCGCAACTCACACATGCTACTGATGATGTACGTACGGACGGAGTCACCTAGTGCAG | 25900 fluorescence intensity (a.u.)

Three records picked at random from the list so far, as already listed:
Sequence | binding signal
TGACTAGGTCGTTGCACGCGTCAGCCGGTAGTCCGGACAGCGGAGTCACCTAGTGCAG | 6110 fluorescence intensity (a.u.)
CATGGACAGATATATATAATCACCCATGCATATCAACAGTCGGAGTCACCTAGTGCAG | 3300 fluorescence intensity (a.u.)
TTCTCCTTCTCCCCAATCGTCAACAGCACCGTCATTCCTCCGGAGTCACCTAGTGCAG | 4810 fluorescence intensity (a.u.)

More entries follow:

Sequence | binding signal
GATGTTGATGTCACAGCCAACATAGAGAGCATCTCCTTCCCGGAGTCACCTAGTGCAG | 3780 fluorescence intensity (a.u.)
CGCCGCCGCCGTTGGGGACGGCGATCGAGCAAGGGGCCGTCGGAGTCACCTAGTGCAG | 26200 fluorescence intensity (a.u.)
CGACTTTGGTACACATCACACAACACAACACAACACCCGGCGGAGTCACCTAGTGCAG | 3170 fluorescence intensity (a.u.)
CCTCGCCGTCACGCTGGCGGTCGCCACCTCGTCGCTCTCCCGGAGTCACCTAGTGCAG | 3720 fluorescence intensity (a.u.)
AACTATCTTTATTCTAATGTATCGACGTGTAATTCTTTTACGGAGTCACCTAGTGCAG | 3300 fluorescence intensity (a.u.)
GGACATAATCTGACTCTTACTCTATTTATAGTATACAACTCGGAGTCACCTAGTGCAG | 4640 fluorescence intensity (a.u.)
CGTCTACCTCTACGACGACTTCGCCGTCACCGCCGCCACCCGGAGTCACCTAGTGCAG | 3260 fluorescence intensity (a.u.)
GATTGTGTCACGCTGCCTTTGTGACAACCTGCTTCTTCTTCGGAGTCACCTAGTGCAG | 4250 fluorescence intensity (a.u.)
TGTAGTGTGTGTATATATACGTGCCACTGCCCCGTCGAGCCGGAGTCACCTAGTGCAG | 4360 fluorescence intensity (a.u.)
GTAGACCGAACTGTTAGCTAGTCAGCACCCACTAATCTCCCGGAGTCACCTAGTGCAG | 4830 fluorescence intensity (a.u.)
AGAAGGAAATGTTGGTGAAGAAGTTGTTATATTTTAGGATCGGAGTCACCTAGTGCAG | 19500 fluorescence intensity (a.u.)
CAGGAAGCGCGAGACCACCGCCTACGTCGTCTCCCTCGCCCGGAGTCACCTAGTGCAG | 3250 fluorescence intensity (a.u.)
CCCAGGCCGCCACCCTCGTCCACGCCAGCAACGTCCAGTACGGAGTCACCTAGTGCAG | 6350 fluorescence intensity (a.u.)
ATTTTGCATATCATTGCTGACGTCACTGCTAGCTGTATAACGGAGTCACCTAGTGCAG | 19500 fluorescence intensity (a.u.)
TTTATTTTCCAACCCATCTCTCTTCTTTCTGCGCACACGTCGGAGTCACCTAGTGCAG | 4410 fluorescence intensity (a.u.)
ATATAAAATGCAAACCAGTCACTTGTCATCTCAATCTCACCGGAGTCACCTAGTGCAG | 4310 fluorescence intensity (a.u.)
AAGGGAATATCACGATTTCTAGTTTGCAATCGCGTCACGTCGGAGTCACCTAGTGCAG | 5110 fluorescence intensity (a.u.)
TTCTAAGTTGGGGATGTGTTGTATCCGATTTTACGGTCCACGGAGTCACCTAGTGCAG | 4150 fluorescence intensity (a.u.)
AAACAAAAGTGACATGTCTCCATAAGGTTATCAACTTGTTCGGAGTCACCTAGTGCAG | 4390 fluorescence intensity (a.u.)
CTTCCCACCCATGGTGGGAATGTGTGATGGCACCTGGTGACGGAGTCACCTAGTGCAG | 4290 fluorescence intensity (a.u.)
TTTGTTGATTAGCTGATCTGGCTAGCTAGTTGAAATTGAACGGAGTCACCTAGTGCAG | 3480 fluorescence intensity (a.u.)
